Experimental data from patent US20060292560.

Target: p53 (Homo sapiens) (UniProt P04637)
Assay: activity in cells
Settings: luciferase reporter induced by p53 cotransfection in HeLa; fold value not in the text provided; protein in cells; only the site is given

Row | Sequence | activity on this sequence
1 | CAAGAAGGGGACTCGGCTTGTCTGAACTAGCATAAGGAAGTCCC (double strand) [Sequence B (BAC RPII-557N21, AC009242)] | active
2 | CTTCCCTCATCCTCCAGCAGGCTAGCTCGGGCTTGGTCACCTGACAGGGG (double strand) [Sequence A (chromosome 17, AC005562)] | active

Construct, isoform or probe ends are uncertain for at least one entry.
